The record followed here is publication PMC10110401.

Amino acid sequences for entries named in this document (tags omitted).
UniProt P70372, whole entry: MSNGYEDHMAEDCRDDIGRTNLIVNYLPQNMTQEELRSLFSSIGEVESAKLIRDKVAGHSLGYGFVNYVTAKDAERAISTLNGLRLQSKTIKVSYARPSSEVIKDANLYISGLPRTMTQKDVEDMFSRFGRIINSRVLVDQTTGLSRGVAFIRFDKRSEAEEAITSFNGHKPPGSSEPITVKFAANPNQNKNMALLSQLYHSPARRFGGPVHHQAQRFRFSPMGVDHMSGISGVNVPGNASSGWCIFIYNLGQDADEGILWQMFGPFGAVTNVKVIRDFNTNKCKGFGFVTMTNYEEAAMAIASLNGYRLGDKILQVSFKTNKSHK

The series deals with HuR (endogenous, RAW 264.7 lysate) (Mus musculus (RAW 264.7)) (UniProt P70372). As to the kind of experiment: pull-down. The following applies: pull-down: lysis in 20 mM Tris-HCl pH 7.5, 100 mM KCl, 5 mM MgCl2, 0.5% NP-40, probe 0.5 uM in TENT (20 mM Tris-HCl pH 8.0, 2 mM EDTA, 500 mM NaCl, 1% Triton X-100), 4 C, protein in an extract, label: biotin.

Construct, isoform or probe ends are uncertain for at least one entry. At least one result comes from cells or an extract, where the contact may be indirect. A negative result means that nothing was seen under these conditions. At least one verdict rests on a figure or table, not on a statement of the authors.

For the sequence “ACCACCCACCACCCACCCACCACCCA [Bi-TNFneg (ARE-Neg)]”, for the setting “probe described as not recognized by HuR, biotin”, the binding result was “no binding”. On to “AUUAUUUAUUAUUUAUUUAUUAUUUA [Bi-TNF ARE probe]”, for which the binding result (DMSO, HuR signal reduced ~50% after TM7nox 10 uM pre-treatment, 5'-biotin) is “binds”.
